For the assay, the target named is Fyn (mouse (endogenous in CD8+ CTLs)) (UniProt P39688). The assay can be described thus: co-IP; endogenous proteins; CD8+ CTLs stimulated with hydrogen peroxide and sodium orthovanadate; lysates incubated with various antibodies and protein G-coupled sepharose beads; immunoblotting with antibodies against SKAP55, ADAP and Fyn. (Immunoblotting shows a protein as a band on a membrane.)

Sequences of proteins named here, by UniProt entry; tags and fusion partners are left off.
UniProt P39688: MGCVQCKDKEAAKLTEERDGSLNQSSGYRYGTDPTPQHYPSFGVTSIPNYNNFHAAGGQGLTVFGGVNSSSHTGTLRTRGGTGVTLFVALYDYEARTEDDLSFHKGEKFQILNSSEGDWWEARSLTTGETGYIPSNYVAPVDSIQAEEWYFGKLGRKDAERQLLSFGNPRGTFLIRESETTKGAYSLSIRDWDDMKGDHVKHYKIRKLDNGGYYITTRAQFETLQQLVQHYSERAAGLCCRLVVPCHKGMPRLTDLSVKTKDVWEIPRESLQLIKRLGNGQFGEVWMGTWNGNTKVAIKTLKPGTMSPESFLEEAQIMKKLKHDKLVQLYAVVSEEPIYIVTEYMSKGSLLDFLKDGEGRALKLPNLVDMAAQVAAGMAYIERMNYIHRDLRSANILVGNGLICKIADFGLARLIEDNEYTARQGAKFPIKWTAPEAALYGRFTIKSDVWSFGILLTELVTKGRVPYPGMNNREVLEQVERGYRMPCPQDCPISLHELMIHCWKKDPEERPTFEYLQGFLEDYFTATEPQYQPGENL

Results are given in words; binding and its absence hold for the method and conditions named. In cells and extracts the contact can be indirect. Some results given as binding are weak or reduced against the parent protein; the word gives no strength.

B1: SKAP55 (src kinase-associated protein of 55 kDa) (protein, UniProt Q3UUV5 1-355)
chain: MQAVALPEEICWLLEDTEDFLAEGLQNENLSPGAQDQRAHILRGFQQIKSRYCWDFQPQGGDLGQDGSDDNLSGTHGPPLTSEASFWSDYQDEGIEDILRGAQELDSVIKQGYLEKKSKDHSFFGSEWQKRWCVISRGLFLYYANEKSKQPKGTFLIKGYSVRMAPHLRKDSKKESCFELISQDRRSYEFTASSPAEARDWVDQISFLLKDLSSLTIPFEEEEEEEEEEEKEEEEMYNDVDGFDSPRSGSQCRAMALPEPTEKEEDIYEVLPDDDDLEEDTCGAHRRRVDYADYYQGLWDCHGDQPDELSFQRGDLIRILSKEYNMYGWWVGELNSVIGIVPKDYLTTAFEMEGI
B1: the binding entry was “binds”.

B2: ADAP (adhesion and degranulation promoting adaptor protein) (protein, UniProt O35601 1-819)
chain: MAKFNTGSNPTEEAATSSRPFKVAGQSSPSGIQSRKNLFDNQGNASPPAGPSSMPKFGTTKPPLAAKPTYEEKPEKEPKPPFLKPTGGSPRFGTQPNSVSRDPEVKVGFLKPVSPKPTSLTKEDSKPVVLRPPGNKLHNLNQESDLKTPGPKPGPAPPVPENELKPGFSKVAGAKSKFMPAAQDTDSKPRFPRHTFGQKPSLSTEDSQEENTSKNVPVQKGSPVQLGAKSKGAPFKPPKEDPEDKDHGAPSSPFPGVVLKPAASRGSPGLSKNFEEKKEDRKTDLAKNIFLNKLNQEEPARFPKAPSKLTAGTPWGQSQEKEGDKNSATPKQKALPPLSVLGPPPPKPNRPPNVDLTRFRKADSANSATKSQTPYSTTSLPPPPPTHPASQPPLPASHPAHPPVPSLPPRNIKPPLDLKHPINDENQDGVMHSDGTGNLEEEQESEGETYEDIDSSKERDKKREKEEKKRLELERKEQKEREKKEQELKKKFKLTGPIQVIHHAKACCDVKGGKNELSFKQGEDIEIIRITDNPEGKWLGRTARGSYGYIKTTAVEIDYDSLKRKKNSLNAVPPRLVEDDQDVYDDVAEQDAPNSHGQSGSGGMFPPPPTDDEIYDGIEEEDDDDGSVPQVDEKTNAWSWGILKMLKGKDDRKKSIREKPKVSESDNNEGSSLPSQHKQLDVGEEVYDDVDASDFPPPPAEMSQGMSVGRAKTEEKDPKKLKKQEKEEKDLRKKFKYDGEIRVLYSTKVASSLTSKKWGARDLQIKPGESLEVIQSTDDTKVLCRNEEGKYGYVLRSYLVDNDGEIYDDIADGCIYDND
As to B2, the binding entry is listed as “binds”.

The values are drawn from paper PMC4459816.
